Laboratory results published in patent US10294259B2, “Phenyl c-glucoside derivative containing deoxyglucose structure, preparation method and use thereof” (Tianjin Institute of Pharmaceutical Research, priority 2012, dated 2019).
For at least one compound, name, drawing or mass did not settle the structure.

Experiments:
Assay type in all cases: physicochemical
[1] = Influencing factors test: light stability
Description: (§1) The appearance, number of impurity and the amount of impurity (measured by HPLC) are compared with that of day 0.

[2] = Influencing factors test: higher temperature stability
Description: as §1

[3] = Influencing factors test: higher humidity stability
Description: as §1

For `CCOc1ccc(Cc2cc(C3OC(C)C(O)C(O)C3O)ccc2Cl)cc1` [cocrystal of I-D1-6 and L-proline, cocrystal of (1S)-1-[4-chloro-3-(4-ethoxybenzyl)phenyl]-1,6-dideoxy-D-glucose (I-D1-6) and L-proline], the Appearance ([1]; light (natural daylight, about 80000 Lx), day 0) was “white crystalline”, the Appearance ([1]; light, day 7) was “white crystalline” and the Appearance ([1]; light, day 14) was “white crystalline”. For the same molecule, the Number of impurity ([2]; 45° C., day 0, HPLC) was 3, the “Total amount of impurity (%)” value ([2]; 45° C., day 0, HPLC) was 0.51% and the Appearance ([2]; 45° C., day 7) was “white crystalline”. The Crystal form ([2]; 45° C., day 7) was “unchanged”, the Number of impurity ([2]; 45° C., day 7, HPLC) was 3 and the “Total amount of impurity (%)” value ([2]; 45° C., day 7, HPLC) was 0.51%. The Appearance ([2]; 45° C., day 14) was “white crystalline”, the Crystal form ([2]; 45° C., day 14) was “unchanged” and the Number of impurity ([2]; 45° C., day 14, HPLC) was 3. The “Total amount of impurity (%)” value ([2]; 45° C., day 14, HPLC) was 0.51%, the Appearance ([2]; higher temperature (45° C.), day 0) was “white crystalline” and the Appearance ([3]; higher humidity (30% relative humidity at 30° C.), day 0) was “white crystalline”. The Appearance ([3]; higher humidity, day 7) was “white crystalline” and the Appearance ([3]; higher humidity, day 14) was “white crystalline”.
